Laboratory results: US20240026314A1, “POLYPEPTIDES FOR USE IN THE SYNTHESIS OF BIOACTIVE PHENOLIC COMPOUNDS” (priority 2020, published 2024)
At least one compound was matched to its structure with a doubt left. Some results were stated once for a whole list of compounds, not compound by compound.

Tested on: CsOMT1
Test: O-methyltransferase enzyme assay with recombinant CsOMT1
Format: biochemical, Cannabis sativa
Conditions: compound as substrate

Compound: Oc1ccc(CCc2cc(O)cc(O)c2)cc1 [dihydroresveratrol]
- O-methyltransferase activity with substrate (among four OMTs and four bibenzyls): higher O-methyltransferase activity

Compound: Oc1ccc(C=Cc2cc(O)cc(O)c2)cc1 [resveratrol]
- O-methyltransferase activity relative to that with DHR (1 mM, [14C]-SAM methyl donor, relative to dihydroresveratrol): lower than 5%
